{
  "source": "PubChem BioAssay AID328",
  "about": "(DTP/NCI, 2004)",
  "test_system": "BDF1 mice, P388 leukemia ip, median survival T/C",
  "assay": "NCI In Vivo Anticancer Drug Screen. Data for tumor model P388 Leukemia (intraperitoneal) in B6D2F1 (BDF1) mice",
  "conditions": "T/C endpoint: median survival time, higher T/C = longer survival",
  "method_in_brief": "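T/C = treated-group survival ÷ vehicle-control survival; tumour transplanted into mice before dosing.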",
  "note": "The list does not hold the whole screen: it is rich in T/C values a quarter to a half above the control, in often repeated tests (any T/C) and in doses without a T/C. Further doses and runs are listed elsewhere. T/C is the treated group as % of the vehicle group. Some doses have a count of surviving animals in place of a T/C: the source files T/C as zero there, which appears to mark a toxic dose or a test without result, not a measured value. Some survivor counts are full or nearly so, which does not show that the dose was tolerated: the source hardly ever lists a survival T/C far under the control, and the zero likely stands for such cases as well. Counts of survivors are from the toxicity check (mostly the fifth day) where no day follows; animals may have died later. Schedules are NCI's codes, read here as Q, the interval in days (D) or hours (H), X, the number of doses.",
  "data": [
    {"compound": "Clc1ncnc2nc[nH]c12", "values": [
      {"measurement": "survivor count", "setting": "dose: 30.0 mg/kg/injection, schedule: Q01DX010 (ip), vehicle: saline", "result": "6 of 6"},
      {"measurement": "survivor count", "setting": "dose: 60.0 mg/kg/injection, schedule: Q01DX010 (ip), vehicle: saline", "result": "6 of 6"}
    ]},
    {"compound": "ClC(c1ccccc1)C1(Br)C=c2ccccc2=C1", "note": "(stereo not given)", "values": [
      {"measurement": "survivor count", "setting": "dose: 200.0 mg/kg/injection, schedule: Q01DX009 (ip), vehicle: Klucel (hydroxypropylcellulose) (HPC)", "result": "1 of 6"}
    ]},
    {"compound": "O=C1NN=C(c2ccc(Br)cc2)CS1", "values": [
      {"measurement": "survivor count", "setting": "dose: 200.0 mg/kg/injection, schedule: Q01DX009 (ip), vehicle: saline with Tween-80", "result": "4 of 6"},
      {"measurement": "survivor count", "setting": "dose: 400.0 mg/kg/injection, schedule: Q01DX009 (ip), vehicle: saline with Tween-80", "result": "1 of 6"}
    ]}
  ]
}
